Results from the supplement of paper PMC10849652.
This is one part of the list.

The chains behind the UniProt entries cited, without tags or fusion partners. Where a name states a change or a piece, a line headed by the entry shows the natural chain unless it says otherwise.
UniProt Q9BRR6: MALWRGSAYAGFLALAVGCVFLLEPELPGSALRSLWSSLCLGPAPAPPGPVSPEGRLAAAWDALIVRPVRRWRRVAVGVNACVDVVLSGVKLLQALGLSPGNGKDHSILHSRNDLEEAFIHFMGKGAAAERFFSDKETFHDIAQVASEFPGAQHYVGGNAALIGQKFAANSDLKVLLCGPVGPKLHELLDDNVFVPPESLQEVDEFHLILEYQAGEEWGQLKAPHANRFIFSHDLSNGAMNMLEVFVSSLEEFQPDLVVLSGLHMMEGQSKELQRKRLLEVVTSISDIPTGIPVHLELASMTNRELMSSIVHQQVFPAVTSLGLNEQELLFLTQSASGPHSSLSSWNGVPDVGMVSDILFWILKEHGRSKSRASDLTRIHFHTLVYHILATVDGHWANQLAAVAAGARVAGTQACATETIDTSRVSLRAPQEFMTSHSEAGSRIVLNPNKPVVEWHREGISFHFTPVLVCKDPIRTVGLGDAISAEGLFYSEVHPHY
UniProt Q01433: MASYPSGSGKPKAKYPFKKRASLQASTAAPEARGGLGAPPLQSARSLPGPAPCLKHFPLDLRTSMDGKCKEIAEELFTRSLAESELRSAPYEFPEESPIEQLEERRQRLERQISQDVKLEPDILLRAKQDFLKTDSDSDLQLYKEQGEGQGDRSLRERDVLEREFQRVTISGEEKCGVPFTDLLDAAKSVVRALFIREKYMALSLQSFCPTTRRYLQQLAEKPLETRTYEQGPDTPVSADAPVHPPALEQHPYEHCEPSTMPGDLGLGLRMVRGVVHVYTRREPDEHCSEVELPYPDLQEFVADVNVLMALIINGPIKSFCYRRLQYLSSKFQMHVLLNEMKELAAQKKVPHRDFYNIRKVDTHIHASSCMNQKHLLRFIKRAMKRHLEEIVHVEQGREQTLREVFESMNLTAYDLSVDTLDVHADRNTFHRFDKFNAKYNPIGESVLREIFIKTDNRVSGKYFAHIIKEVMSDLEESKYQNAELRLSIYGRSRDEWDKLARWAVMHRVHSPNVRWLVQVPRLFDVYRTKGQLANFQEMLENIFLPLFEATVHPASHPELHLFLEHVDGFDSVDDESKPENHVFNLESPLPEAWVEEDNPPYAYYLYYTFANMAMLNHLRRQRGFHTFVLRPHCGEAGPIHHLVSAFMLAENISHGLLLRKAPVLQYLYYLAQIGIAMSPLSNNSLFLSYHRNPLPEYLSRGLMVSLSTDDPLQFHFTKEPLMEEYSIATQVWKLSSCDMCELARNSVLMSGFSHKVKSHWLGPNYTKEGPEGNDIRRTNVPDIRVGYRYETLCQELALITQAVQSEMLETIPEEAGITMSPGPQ
UniProt Q9BV10: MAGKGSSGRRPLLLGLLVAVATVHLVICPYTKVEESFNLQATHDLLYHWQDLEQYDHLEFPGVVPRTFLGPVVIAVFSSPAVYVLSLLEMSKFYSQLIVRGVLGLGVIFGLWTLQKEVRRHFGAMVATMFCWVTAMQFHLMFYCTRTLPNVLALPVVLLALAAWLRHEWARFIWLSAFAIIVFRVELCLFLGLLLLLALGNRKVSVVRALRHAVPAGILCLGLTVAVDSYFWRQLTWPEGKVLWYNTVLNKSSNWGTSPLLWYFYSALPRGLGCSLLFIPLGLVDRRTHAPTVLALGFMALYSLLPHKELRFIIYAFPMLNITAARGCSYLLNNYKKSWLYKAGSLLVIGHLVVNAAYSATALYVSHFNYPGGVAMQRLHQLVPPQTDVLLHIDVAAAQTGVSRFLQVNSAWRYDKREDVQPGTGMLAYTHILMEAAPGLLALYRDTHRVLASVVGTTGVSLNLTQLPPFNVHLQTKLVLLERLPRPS
UniProt Q9UEY8: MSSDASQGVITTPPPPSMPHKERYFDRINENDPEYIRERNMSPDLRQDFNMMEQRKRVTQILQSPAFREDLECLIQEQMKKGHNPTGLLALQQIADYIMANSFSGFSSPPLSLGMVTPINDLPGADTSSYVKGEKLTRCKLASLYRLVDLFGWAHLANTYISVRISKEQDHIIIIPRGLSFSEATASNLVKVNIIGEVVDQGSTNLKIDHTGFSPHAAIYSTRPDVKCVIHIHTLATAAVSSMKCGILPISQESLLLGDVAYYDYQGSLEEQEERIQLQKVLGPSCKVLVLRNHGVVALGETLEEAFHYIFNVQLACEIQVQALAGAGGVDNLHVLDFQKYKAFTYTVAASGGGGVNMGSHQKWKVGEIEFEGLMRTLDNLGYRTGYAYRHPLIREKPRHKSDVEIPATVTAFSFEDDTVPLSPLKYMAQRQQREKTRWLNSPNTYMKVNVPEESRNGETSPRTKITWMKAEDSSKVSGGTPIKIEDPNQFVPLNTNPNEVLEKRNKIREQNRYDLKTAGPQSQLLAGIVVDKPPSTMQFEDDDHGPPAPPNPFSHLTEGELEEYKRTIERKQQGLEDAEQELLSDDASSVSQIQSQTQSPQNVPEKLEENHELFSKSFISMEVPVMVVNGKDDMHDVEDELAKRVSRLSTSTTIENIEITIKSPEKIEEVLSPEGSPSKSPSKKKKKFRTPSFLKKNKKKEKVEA
UniProt P55196: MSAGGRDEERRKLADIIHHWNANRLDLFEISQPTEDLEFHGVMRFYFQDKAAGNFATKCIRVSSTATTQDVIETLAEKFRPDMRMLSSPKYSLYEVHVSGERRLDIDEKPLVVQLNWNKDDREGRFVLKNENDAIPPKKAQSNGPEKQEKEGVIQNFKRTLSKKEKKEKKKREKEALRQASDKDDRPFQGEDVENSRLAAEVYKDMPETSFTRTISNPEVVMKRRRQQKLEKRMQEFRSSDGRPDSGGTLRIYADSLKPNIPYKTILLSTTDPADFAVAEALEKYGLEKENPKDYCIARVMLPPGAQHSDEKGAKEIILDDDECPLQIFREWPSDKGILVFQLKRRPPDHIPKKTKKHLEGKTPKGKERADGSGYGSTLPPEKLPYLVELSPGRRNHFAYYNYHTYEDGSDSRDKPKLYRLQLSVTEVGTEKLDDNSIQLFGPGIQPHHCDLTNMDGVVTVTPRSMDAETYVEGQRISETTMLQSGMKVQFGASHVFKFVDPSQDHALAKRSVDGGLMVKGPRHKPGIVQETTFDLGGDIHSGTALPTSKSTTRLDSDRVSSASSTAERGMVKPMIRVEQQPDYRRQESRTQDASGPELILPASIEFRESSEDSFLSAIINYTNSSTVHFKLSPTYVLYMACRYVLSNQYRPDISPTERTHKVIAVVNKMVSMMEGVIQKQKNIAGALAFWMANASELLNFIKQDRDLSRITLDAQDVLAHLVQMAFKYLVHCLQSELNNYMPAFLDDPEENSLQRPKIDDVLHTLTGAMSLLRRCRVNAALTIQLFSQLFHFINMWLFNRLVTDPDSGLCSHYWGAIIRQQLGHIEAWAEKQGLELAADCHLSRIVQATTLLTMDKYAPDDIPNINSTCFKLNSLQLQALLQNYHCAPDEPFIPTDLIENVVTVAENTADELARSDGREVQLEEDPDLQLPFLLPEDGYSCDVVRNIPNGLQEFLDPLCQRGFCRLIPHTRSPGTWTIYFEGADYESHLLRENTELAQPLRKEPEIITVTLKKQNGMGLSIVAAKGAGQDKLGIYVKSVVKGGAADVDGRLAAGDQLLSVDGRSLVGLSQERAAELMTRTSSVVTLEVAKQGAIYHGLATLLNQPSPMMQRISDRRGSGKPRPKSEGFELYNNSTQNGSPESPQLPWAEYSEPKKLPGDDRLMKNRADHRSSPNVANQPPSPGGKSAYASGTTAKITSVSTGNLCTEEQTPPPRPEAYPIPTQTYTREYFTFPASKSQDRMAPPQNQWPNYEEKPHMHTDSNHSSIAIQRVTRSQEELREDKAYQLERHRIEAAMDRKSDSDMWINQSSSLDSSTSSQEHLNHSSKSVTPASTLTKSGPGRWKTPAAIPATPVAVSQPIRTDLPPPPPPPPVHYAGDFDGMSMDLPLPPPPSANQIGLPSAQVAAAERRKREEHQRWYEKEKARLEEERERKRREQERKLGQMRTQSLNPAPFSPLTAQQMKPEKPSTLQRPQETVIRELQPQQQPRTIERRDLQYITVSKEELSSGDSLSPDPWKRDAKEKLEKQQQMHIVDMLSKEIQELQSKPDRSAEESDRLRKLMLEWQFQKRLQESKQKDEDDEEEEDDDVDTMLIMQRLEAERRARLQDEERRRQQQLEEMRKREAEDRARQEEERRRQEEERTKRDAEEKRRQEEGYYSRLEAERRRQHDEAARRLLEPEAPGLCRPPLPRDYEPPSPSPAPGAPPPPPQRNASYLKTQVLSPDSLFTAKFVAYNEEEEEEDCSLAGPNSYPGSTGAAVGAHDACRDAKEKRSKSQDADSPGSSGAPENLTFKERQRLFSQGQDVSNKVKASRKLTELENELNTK
UniProt Q6P6C2: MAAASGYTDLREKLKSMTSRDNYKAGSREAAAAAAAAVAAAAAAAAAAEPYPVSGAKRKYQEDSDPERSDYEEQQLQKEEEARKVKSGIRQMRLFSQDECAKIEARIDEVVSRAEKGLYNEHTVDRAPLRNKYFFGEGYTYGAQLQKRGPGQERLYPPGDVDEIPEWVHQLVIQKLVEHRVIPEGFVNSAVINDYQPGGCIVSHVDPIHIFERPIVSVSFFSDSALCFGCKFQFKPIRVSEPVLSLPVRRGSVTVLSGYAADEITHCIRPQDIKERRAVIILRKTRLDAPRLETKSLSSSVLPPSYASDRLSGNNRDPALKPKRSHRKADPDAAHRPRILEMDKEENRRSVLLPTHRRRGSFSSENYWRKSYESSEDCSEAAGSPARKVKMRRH
UniProt P30837: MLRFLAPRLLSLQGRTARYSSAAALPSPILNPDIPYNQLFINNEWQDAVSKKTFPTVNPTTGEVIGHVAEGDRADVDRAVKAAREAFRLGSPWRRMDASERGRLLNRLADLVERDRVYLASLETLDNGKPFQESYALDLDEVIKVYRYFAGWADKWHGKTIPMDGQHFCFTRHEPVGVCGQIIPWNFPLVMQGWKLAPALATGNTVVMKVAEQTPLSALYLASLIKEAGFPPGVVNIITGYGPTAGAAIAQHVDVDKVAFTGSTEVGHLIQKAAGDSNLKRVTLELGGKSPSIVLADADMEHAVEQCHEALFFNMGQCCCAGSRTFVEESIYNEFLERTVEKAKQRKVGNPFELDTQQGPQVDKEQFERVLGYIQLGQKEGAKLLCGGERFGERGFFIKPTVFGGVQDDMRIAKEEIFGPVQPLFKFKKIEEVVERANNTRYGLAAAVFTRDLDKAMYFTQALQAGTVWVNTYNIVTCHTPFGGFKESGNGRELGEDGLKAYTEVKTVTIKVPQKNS
UniProt O00170: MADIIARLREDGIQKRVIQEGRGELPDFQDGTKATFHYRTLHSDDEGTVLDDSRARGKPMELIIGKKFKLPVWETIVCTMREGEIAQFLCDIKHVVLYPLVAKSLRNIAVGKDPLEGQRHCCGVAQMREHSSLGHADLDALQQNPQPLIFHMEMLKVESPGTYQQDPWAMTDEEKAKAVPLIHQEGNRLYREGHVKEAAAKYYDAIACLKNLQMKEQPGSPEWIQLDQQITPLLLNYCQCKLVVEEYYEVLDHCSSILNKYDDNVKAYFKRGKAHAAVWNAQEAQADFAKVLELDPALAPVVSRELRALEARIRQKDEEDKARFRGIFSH
UniProt Q99943: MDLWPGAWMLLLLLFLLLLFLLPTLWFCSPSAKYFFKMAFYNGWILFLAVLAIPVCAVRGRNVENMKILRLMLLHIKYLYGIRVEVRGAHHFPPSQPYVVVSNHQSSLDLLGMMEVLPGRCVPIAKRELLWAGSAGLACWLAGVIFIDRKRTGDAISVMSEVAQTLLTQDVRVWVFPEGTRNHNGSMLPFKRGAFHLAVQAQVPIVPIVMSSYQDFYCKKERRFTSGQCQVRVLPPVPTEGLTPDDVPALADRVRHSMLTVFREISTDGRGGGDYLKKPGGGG
UniProt Q9Y3D8, whole entry, looked up: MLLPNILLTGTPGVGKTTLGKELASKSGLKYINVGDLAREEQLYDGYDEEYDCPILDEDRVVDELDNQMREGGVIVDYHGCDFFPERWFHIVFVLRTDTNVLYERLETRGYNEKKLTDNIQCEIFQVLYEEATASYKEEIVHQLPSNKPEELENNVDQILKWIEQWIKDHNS
UniProt Q9NUQ2: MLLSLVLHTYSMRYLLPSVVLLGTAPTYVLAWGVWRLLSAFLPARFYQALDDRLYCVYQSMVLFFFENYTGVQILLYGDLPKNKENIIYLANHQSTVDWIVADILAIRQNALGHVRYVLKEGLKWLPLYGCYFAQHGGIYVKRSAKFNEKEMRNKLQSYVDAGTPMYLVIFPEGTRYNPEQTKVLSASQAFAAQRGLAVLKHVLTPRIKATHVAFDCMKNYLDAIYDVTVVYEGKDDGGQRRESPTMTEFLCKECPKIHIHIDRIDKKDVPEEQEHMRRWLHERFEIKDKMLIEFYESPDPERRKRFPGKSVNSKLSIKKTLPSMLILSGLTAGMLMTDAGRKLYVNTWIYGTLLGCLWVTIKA

Tests used:
Assay in all cases: log2 fold change, soluble protein after heating vs DMSO (PISA); higher = thermal stabilisation; K562 cells, 10 uM, 30 min; active = over 0.2 and 3.5 SD of the protein, either way, in both replicates (recomputed)
[1] = compound: CS(=O)(=O)c1ccc(-c2cnc(N)c(C(=O)Nc3ccccc3)n2)cc1
In short: (§1)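 Values are thermal stability changes relative to control samples and are taken from duplicates. They are stated as log2 fold changes. Before quantification by TMTpro 16plex LC-MS/MS with equalised channel sums, K562 cells at 2×10^6 cells/mL were treated with 10 μM compound for 30 min, heated in aliquots for 3 min across 48°C-58°C, pooled, extracted in PBS with 0.5% NP-40 at 4°C, and centrifuged at 21,000xg for 90 min to give the soluble supernatant.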

crizotinib = compound: C[C@@H](Oc1cc(-c2cnn(C3CCNCC3)c2)cnc1N)c1c(Cl)ccc(F)c1Cl [crizotinib]
In short: as §1

[2] = compound: C[C@@H]1COCCN1C2=NC(=NC(=C2)C3(CC3)S(=O)(=O)C)C4=C5C=CNC5=CC=C4
In short: as §1

[3] = compound: C[C@H](C1=CC=C(C=C1)C(=O)NC2=C3C=CNC3=NC=C2)N
In short: as §1

duvelisib = compound: C[C@H](Nc1ncnc2nc[nH]c12)c1cc2cccc(Cl)c2c(=O)n1-c1ccccc1 [duvelisib]
In short: as §1

gandotinib = compound: Cc1cc(Nc2cc(CN3CCOCC3)c3nc(C)c(Cc4ccc(Cl)cc4F)n3n2)n[nH]1 [gandotinib]
In short: as §1

tozasertib = compound: Cc1cc(Nc2cc(N3CCN(C)CC3)nc(Sc3ccc(NC(=O)C4CC4)cc3)n2)n[nH]1 [tozasertib]
In short: as §1

[4] = compound: Cc1cc(SCc2sc(-c3ccc(C(F)(F)F)cc3)nc2C)ccc1OCC(=O)O
In short: as §1

doramapimod = compound: Cc1ccc(-n2nc(C(C)(C)C)cc2NC(=O)Nc2ccc(OCCN3CCOCC3)c3ccccc23)cc1 [doramapimod]
In short: as §1

ispinesib = compound: Cc1ccc(C(=O)N(CCCN)[C@@H](c2nc3cc(Cl)ccc3c(=O)n2Cc2ccccc2)C(C)C)cc1 [ispinesib]
In short: as §1

Row | Target | log2 fold change [1] | log2 fold change (crizotinib) | log2 fold change [2] | log2 fold change [3] | log2 fold change (duvelisib) | log2 fold change (gandotinib) | log2 fold change (tozasertib) | log2 fold change [4] | log2 fold change (doramapimod) | log2 fold change (ispinesib)
1 | ALG9 isoform 3 (UniProt Q9H6U8) | inactive: 0.117 | inactive: -0.04 | inactive: -0.054 | inactive: 0.007 | inactive: -0.005 | inactive: -0.107 | inactive: 0.021 | inactive: -0.023 | inactive: 0.049 | inactive: 0.025
2 | ADPGK (UniProt Q9BRR6) | inactive: 0.028 | inactive: 0.098 | inactive: 0.137 | inactive: 0.029 | inactive: 0.057 | inactive: -0.049 | inactive: -0.045 | inactive: 0.057 | inactive: -0.01 | inactive: 0.053
3 | AMPD2 (UniProt Q01433) | inactive: 0.015 | inactive: 0.037 | inactive: 0.048 | inactive: -0.033 | inactive: 0.025 | inactive: -0.027 | inactive: -0.025 | inactive: -0.012 | inactive: -0.005 | inactive: 0.032
4 | ANAPC1 (UniProt Q9H1A4) | inactive: 0.02 | inactive: -0.008 | inactive: 0.002 | inactive: 0.034 | inactive: 0 | inactive: -0.017 | inactive: 0.02 | inactive: 0.024 | inactive: 0.003 | inactive: 0.013
5 | ALG12 (UniProt Q9BV10) | inactive: 0.002 | inactive: 0.013 | inactive: 0.105 | inactive: -0.09 | inactive: -0.004 | – | inactive: -0.12 | inactive: -0.066 | inactive: 0.024 | –
6 | ADD3 (UniProt Q9UEY8) | inactive: 0 | inactive: 0.023 | inactive: 0.018 | inactive: -0.079 | – | inactive: -0.029 | – | inactive: -0.059 | inactive: 0.016 | inactive: 0.061
7 | AHCYL1 (UniProt O43865) | inactive: 0.097 | inactive: 0.018 | inactive: 0.038 | inactive: 0.02 | – | inactive: 0.02 | – | inactive: -0.036 | inactive: -0.045 | inactive: -0.015
8 | AGPAT3 isoform 3 (UniProt Q9NRZ7) | inactive: -0.051 | inactive: -0.04 | inactive: 0.125 | inactive: -0.074 | – | inactive: -0.004 | – | inactive: 0.023 | inactive: 0.004 | inactive: -0.074
9 | AKR1C2 (UniProt P52895) | inactive: 0.005 | inactive: -0.029 | inactive: -0.159 | inactive: 0.219 | – | inactive: 0.089 | – | inactive: 0.098 | inactive: -0.036 | inactive: 0.077
10 | ADD1 isoform 3 (UniProt P35611) | inactive: 0.018 | inactive: 0.005 | inactive: -0.011 | inactive: -0.109 | – | inactive: -0.054 | – | inactive: -0.015 | inactive: 0.001 | inactive: 0.045
11 | AKT2 (UniProt P31751) | inactive: 0.035 | inactive: -0.18 | inactive: -0.211 | inactive: 0.051 | – | inactive: -0.233 | – | inactive: 0.113 | inactive: 0.015 | inactive: -0.083
12 | AFDN isoform 1 (UniProt P55196) | inactive: 0.004 | inactive: 0.088 | inactive: 0.371 | inactive: 0.111 | – | inactive: 0.183 | – | inactive: 0.068 | inactive: 0.116 | inactive: 0.11
13 | AKR1C3 (UniProt P42330) | inactive: -0.101 | inactive: 0.028 | inactive: -0.009 | inactive: -0.035 | – | inactive: 0.005 | – | inactive: 0.078 | inactive: -0.012 | inactive: 0.371
14 | ALG3 (UniProt Q92685) | inactive: -0.067 | inactive: 0.087 | inactive: 0.001 | inactive: -0.077 | – | inactive: -0.107 | – | inactive: 0.049 | inactive: 0.006 | inactive: -0.086
15 | ADRM1 (UniProt Q16186) | inactive: 0.006 | inactive: -0.109 | inactive: -0.028 | inactive: 0.138 | – | inactive: -0.056 | – | inactive: 0.069 | inactive: 0.041 | inactive: -0.05
16 | ALDH9A1 isoform 3 (UniProt P49189) | inactive: -0.002 | inactive: -0.002 | inactive: 0.027 | inactive: -0.042 | – | inactive: 0.063 | – | inactive: -0.002 | inactive: -0.004 | inactive: 0.006
17 | ALKBH5 (UniProt Q6P6C2) | inactive: 0.048 | inactive: 0.032 | inactive: -0.11 | inactive: 0.013 | – | inactive: 0.267 | – | inactive: -0.055 | inactive: -0.01 | inactive: 0.007
18 | ADPRHL2 (UniProt Q9NX46) | inactive: 0.052 | inactive: 0.092 | inactive: 0.045 | inactive: -0.072 | – | inactive: 0.07 | – | inactive: 0.039 | inactive: -0.017 | active: 0.303
19 | ALDH1B1 (UniProt P30837) | inactive: 0.054 | inactive: -0.067 | inactive: 0.12 | inactive: -0.068 | – | inactive: -0.025 | – | inactive: 0.008 | inactive: -0.006 | inactive: 0.019
20 | AGRN (UniProt O00468) | inactive: -0.078 | inactive: -0.01 | inactive: -0.073 | inactive: -0.021 | – | inactive: -0.012 | – | inactive: 0.24 | inactive: 0.062 | inactive: 0.009
21 | ALDH2 (UniProt P05091) | inactive: -0.047 | inactive: -0.044 | inactive: 0.051 | inactive: -0.038 | – | inactive: -0.088 | – | inactive: 0.022 | inactive: 0.033 | inactive: -0.023
22 | AIP (UniProt O00170) | inactive: 0.031 | inactive: 0.039 | inactive: 0.075 | inactive: -0.055 | – | inactive: -0.058 | – | inactive: 0.038 | inactive: -0.024 | inactive: 0.011
23 | AGPAT1 (UniProt Q99943) | inactive: 0.017 | inactive: 0.187 | inactive: 0.043 | inactive: -0.018 | – | inactive: -0.106 | – | inactive: 0.014 | inactive: 0.019 | inactive: 0.096
24 | AK6 (UniProt Q9Y3D8) | inactive: 0.151 | inactive: -0.156 | inactive: 0.175 | inactive: 0.115 | – | inactive: -0.049 | – | inactive: 0.065 | inactive: 0.008 | inactive: -0.085
25 | AGPAT5 (UniProt Q9NUQ2) | inactive: 0.035 | inactive: -0.117 | inactive: 0.151 | inactive: -0.014 | – | inactive: -0.09 | – | inactive: -0.029 | inactive: 0.001 | inactive: -0.145
26 | ADD3 isoform 2 (UniProt Q9UEY8) | inactive: -0.032 | inactive: 0.028 | inactive: 0.101 | inactive: -0.248 | – | inactive: -0.211 | – | inactive: 0.089 | inactive: -0.074 | inactive: 0.036

Numbers 11–12, reprinted for reference:
Row | Target | log2 fold change [1] | log2 fold change (crizotinib) | log2 fold change [2] | log2 fold change [3] | log2 fold change (duvelisib) | log2 fold change (gandotinib) | log2 fold change (tozasertib) | log2 fold change [4] | log2 fold change (doramapimod) | log2 fold change (ispinesib)
11 | AKT2 (UniProt P31751) | inactive: 0.035 | inactive: -0.18 | inactive: -0.211 | inactive: 0.051 | – | inactive: -0.233 | – | inactive: 0.113 | inactive: 0.015 | inactive: -0.083
12 | AFDN isoform 1 (UniProt P55196) | inactive: 0.004 | inactive: 0.088 | inactive: 0.371 | inactive: 0.111 | – | inactive: 0.183 | – | inactive: 0.068 | inactive: 0.116 | inactive: 0.11
